{"sequences": {"note": "Protein sequences, listed by entry. Tags and fused reporters are not part of them.", "UniProt Q8NER1, whole entry, looked up": "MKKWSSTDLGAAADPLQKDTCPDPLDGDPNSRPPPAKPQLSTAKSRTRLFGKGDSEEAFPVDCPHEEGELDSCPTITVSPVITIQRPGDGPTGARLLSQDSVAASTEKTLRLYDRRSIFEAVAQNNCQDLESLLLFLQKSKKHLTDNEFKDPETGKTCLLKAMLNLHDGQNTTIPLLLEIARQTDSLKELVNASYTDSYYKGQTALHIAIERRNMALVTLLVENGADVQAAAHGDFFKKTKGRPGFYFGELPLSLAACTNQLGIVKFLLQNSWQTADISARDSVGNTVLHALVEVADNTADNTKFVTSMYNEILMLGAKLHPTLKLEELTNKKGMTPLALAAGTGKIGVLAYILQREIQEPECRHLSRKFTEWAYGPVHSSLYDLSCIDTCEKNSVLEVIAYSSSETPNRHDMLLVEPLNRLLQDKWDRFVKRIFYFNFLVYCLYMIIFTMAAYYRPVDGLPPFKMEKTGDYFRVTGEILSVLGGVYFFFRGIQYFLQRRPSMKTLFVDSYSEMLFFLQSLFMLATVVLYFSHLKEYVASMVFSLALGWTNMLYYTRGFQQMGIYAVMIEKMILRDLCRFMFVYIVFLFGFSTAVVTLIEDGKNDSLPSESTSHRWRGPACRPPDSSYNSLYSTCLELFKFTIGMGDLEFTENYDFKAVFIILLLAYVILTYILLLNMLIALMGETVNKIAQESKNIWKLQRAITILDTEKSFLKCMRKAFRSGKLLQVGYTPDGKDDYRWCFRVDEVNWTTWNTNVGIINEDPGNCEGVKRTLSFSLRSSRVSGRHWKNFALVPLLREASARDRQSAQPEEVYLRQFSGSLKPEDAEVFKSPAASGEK"}, "source": "PubChem BioAssay AID540275", "about": "(National Center for Advancing Translational Sciences (NCATS), 2011)", "note": "In all, about 320,000 compounds went through this assay and about 620 (0.19%) were called active. Inconclusive means that the source gave no clear call. Such entries were picked first, then a sample of the others. Cut-off read from the data, not from the text of the source: active = activation above about 80%; inconclusive = between about 30% and that limit; inactive = weaker than that."}
{"target": "Transient receptor potential cation channel subfamily V member 1 (Homo sapiens) (UniProt Q8NER1)", "assay": "HTS Assay for Compounds that Act as Agonists of the Vanilloid Receptor 1; note: 0% is about no effect", "settings": "TRPV1-expressing cells, Fluo-8 calcium influx, agonist mode; at 8.33 µM, hits give high values", "procedure,_shortened": "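Fluo-8 calcium influx in TRPV1-expressing cells, kinetic read (ex 480/em 520 nm). Compound added and read 3 min for agonist activity, followed by capsaicin at EC20 final and 2 min further read for enhancement.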"}
{"compound": "O=C(Cc1ccc(F)cc1)N1CCN(c2ccc(F)cc2)CC1", "activation": "inconclusive: 63.3%"}
{"compound": "CCOC(=O)[C@H]1[C@H]2COc3ccccc3[C@@H]2N2C(=O)c3ccc(C)cc3NC(=O)[C@@]12C", "activation": "active: 92.6%"}
{"compound": "O=C(NCc1nc2ccccc2[nH]1)C1=C[C@@H](c2ccc(Br)cc2)C[C@@H](OCc2ccc(CO)cc2)O1", "activation": "inactive: 25.7%"}
{"compound": "O=C(NC1CCCCCC1)c1cc2ccccc2oc1=O", "activation": "inconclusive: 43.4%"}
{"compound": "Cc1cccc(N2CCN(S(=O)(=O)c3ccc(-c4ccc(=O)[nH]n4)o3)CC2)c1C", "activation": "inconclusive: 53.6%"}
{"compound": "Cc1cnc(NC(=O)COc2ccc3c(c2)CCC3)s1", "activation": "inconclusive: 37.7%"}
{"compound": "CSc1ccc(-c2nc(CSCC(=O)NC3CC3)c(C)o2)cc1", "activation": "inconclusive: 37.4%"}
{"compound": "CCCCc1ccc(NC(=S)NCc2ccc(OC)cc2)cc1", "activation": "inconclusive: 52.5%"}
{"compound": "COc1cc(/C=N/NC(=O)c2ccc(COc3cc(C)ccc3C(C)C)cc2)cc(OC)c1O", "activation": "inconclusive: 70.1%"}
{"compound": "Cn1cc(C(=O)N/N=C/c2cccc([N+](=O)[O-])c2)c2ccccc21", "activation": "inconclusive: 37.1%"}
{"compound": "Cc1cccc(NC(=O)C2CCCN(C(=O)Nc3ccc(F)cc3)C2)c1", "note": "(stereo not given)", "activation": "inconclusive: 40.9%"}
{"compound": "CCNC(=S)Nc1ccc(OC(F)(F)F)cc1", "activation": "inconclusive: 34.7%"}
{"compound": "Cc1cc(CN(C)C(=O)c2cc(COc3ccc(C)c(C)c3)on2)on1", "activation": "inconclusive: 40.4%"}
{"compound": "O=C(/C=C\\c1cn(-c2ccccc2)nc1-c1cccs1)N1CCOCC1", "activation": "active: 96.6%"}
{"compound": "O=C(NC1CC1)c1ccc2c(c1)N(Cc1ccccc1)CCS2", "activation": "inconclusive: 55.1%"}
{"compound": "O=C(NCCS(=O)(=O)c1ccc(Br)cc1)c1ccccc1", "activation": "inconclusive: 35.4%"}
{"compound": "Cc1ccc(C)c(-c2cc(C(=O)NNC(=S)NCC(C)C)c3ccccc3n2)c1", "activation": "inconclusive: 44.5%"}
{"compound": "CC(=O)c1ccc(N2CCN(C(=O)c3ccco3)CC2)c(F)c1", "activation": "inactive: 4.31%"}
{"compound": "CSc1ccc(CN(C)CC(=O)NCc2ccccc2)cc1", "activation": "inconclusive: 37.5%"}
{"compound": "O=C(Nc1ccc(N2CCOCC2)cc1)C1CCCCN1S(=O)(=O)c1ccccc1", "note": "(stereo not given)", "activation": "inactive: 0.0716%"}
{"compound": "C=CCc1cccc2cc(C(=O)NNC(=O)c3ccncc3)c(=O)oc12", "activation": "active: 81.2%"}
{"compound": "COc1ccc(C(OCC(O)CNCCc2ccc(S(N)(=O)=O)cc2)c2ccc(OC)cc2)cc1", "note": "(stereo not given)", "activation": "inactive: 11.5%"}
{"compound": "O=C(CN1CCOCC1)NNc1c2ccccc2nc2ccccc12", "activation": "inactive: 0.459%"}
{"compound": "CC(C)NC(=S)NC(=O)/C=C/c1cccc2ccccc12", "activation": "inactive: 1.4%"}
{"compound": "CC(C)c1ccc(/C=N/NC(=O)c2ccccn2)cc1", "activation": "inconclusive: 71.2%"}
{"compound": "CC(Oc1ccc(Br)cc1)C(=O)N1CCN(c2ccccn2)CC1", "note": "(stereo not given)", "activation": "inconclusive: 30.1%"}
{"compound": "S=C(NCC1CCCO1)Nc1ccccc1Cl", "note": "(stereo not given)", "activation": "inactive: -2%"}
{"compound": "O=[N+]([O-])c1cc(/C=N/Nc2nc(N3CCCCC3)nc(N3CCCCC3)n2)ccc1O", "activation": "inconclusive: 49.3%"}
{"compound": "CCCOC1CCCN(C(=O)CCc2nnc(-c3ccc4c(c3)OCO4)o2)C1", "note": "(stereo not given)", "activation": "inactive: 1.48%"}
{"compound": "O=C(NCc1ccccc1)NCC12CC3CC(CC(C3)C1)C2", "activation": "inconclusive: 43.7%"}
{"compound": "O=c1cc(-c2ccc3c(c2)OCCO3)oc2ccc(Cl)cc12", "activation": "inactive: 9.09%"}
{"compound": "COc1cc(C(=O)NNC(=O)Nc2ccc([N+](=O)[O-])cc2)cc(OC)c1OC", "activation": "inconclusive: 51.3%"}
{"compound": "COc1cccc(CC(=O)OCC(=O)NCCc2ccc(F)cc2)c1", "activation": "inconclusive: 69.9%"}
{"compound": "O=C(CCOc1ccccc1)N1CCN(c2ccc(O)cc2)CC1", "activation": "inconclusive: 33.6%"}
{"compound": "O=C(Nc1ccccc1)Nc1cccc(C(F)(F)F)c1", "activation": "inconclusive: 68.3%"}
{"compound": "CCS(=O)(=O)c1ccc2oc(SCC(=O)NC3CCCC(C)C3C)nc2c1", "note": "(stereo not given)", "activation": "inactive: -0.541%"}
{"compound": "Nc1cnn(Cc2ccc(F)cc2)c1", "activation": "inactive: 8.11%"}
{"compound": "O=C(N/N=C/C=C/c1ccc2c(c1)OCO2)c1ccc([N+](=O)[O-])cc1", "activation": "inactive: 21.8%"}
{"compound": "O=C(/C=C/c1ccc2c(c1)OCCO2)N1CCN(c2ccc(F)cc2)CC1", "activation": "inconclusive: 38.9%"}
{"compound": "Cc1cccc(N(C(=O)c2nsc(Cl)c2Cl)C(C(=O)NC2CCCC2)c2ccc(O)cc2)c1C", "note": "(stereo not given)", "activation": "inconclusive: 32.1%"}
{"compound": "c1ccc(-n2cc(CNCCc3cscn3)c(-c3ccc4c(c3)OCO4)n2)cc1", "activation": "inconclusive: 31.3%"}
{"compound": "O=C(N/C(=C\\c1ccccc1)C(=O)N1CCCCC1)c1ccc(Br)o1", "activation": "inconclusive: 32.8%"}
{"compound": "NNC(=O)c1ccc(OCC2CC(c3ccc(Cl)cc3)=NO2)cc1", "note": "(stereo not given)", "activation": "inconclusive: 44.8%"}
{"compound": "O=C(C1CCCO1)N1CCN(c2c3c(nc4cc(-c5ccc(F)cc5)nn24)CCC3)CC1", "note": "(stereo not given)", "activation": "inconclusive: 64.3%"}
{"compound": "COc1cccc(NC(=O)NCc2c(-c3ccccc3)noc2C)c1", "activation": "inconclusive: 47.1%"}
{"compound": "Cc1c(NC(=O)c2cccs2)cccc1-c1nc2ccccc2s1", "activation": "inconclusive: 45.1%"}
{"compound": "C=CCNc1oc(Cc2cccc3ccccc23)nc1C#N", "activation": "inconclusive: 36.8%"}
{"compound": "CC(NC(=O)CSc1nc2c(c(C(F)(F)F)n1)CCc1ccccc1-2)c1ccccc1", "note": "(stereo not given)", "activation": "inconclusive: 56.5%"}
{"compound": "Cc1cc(OCC(=O)NC(C)C)cc(C)c1Cl", "activation": "inconclusive: 31.1%"}
{"compound": "CN(CC(=O)Nc1ccc(F)cc1)C(=O)COC(=O)Cc1c(F)cccc1Cl", "activation": "inactive: 16.2%"}
{"compound": "COc1cc(C2C(Oc3ccccc3C)C(=O)N2Cc2ccc(F)cc2)cc(OC)c1OC", "note": "(stereo not given)", "activation": "inconclusive: 42.6%"}
{"compound": "O=C(COC(=O)C1CCN(S(=O)(=O)c2ccccc2C(F)(F)F)CC1)NCc1ccc(F)cc1", "activation": "inconclusive: 60.2%"}
{"compound": "CCN(CC)P(=O)(Nc1ccccc1Br)c1ccc(N(C)C)cc1NC(=O)c1ccco1", "note": "(stereo not given)", "activation": "inconclusive: 66.1%"}
{"compound": "CCOC(=O)N1CCN(c2ccc(C(C)=O)cc2F)CC1", "activation": "inactive: 3.12%"}
{"compound": "Cc1cc(C(=O)Nc2sc3c(c2C#N)CCC(C)C3)cs1", "note": "(stereo not given)", "activation": "inconclusive: 50.1%"}
{"compound": "CC(=O)NCCc1nc2ccccc2n1CCOc1ccc(C)cc1", "activation": "inconclusive: 55.7%"}
{"compound": "Cc1cccc(N(Cc2ccccc2)C(=O)CN2C(=O)NC3(CCCC3)C2=O)c1", "activation": "inconclusive: 55.4%"}
{"compound": "Cc1ccn2c(CN(C)CCn3nc(C)cc3C)c(C(=O)N3CCCCCC3)nc2c1", "activation": "inactive: 15.3%"}
{"compound": "O=C(NCCc1c[nH]c2ccccc12)c1ccc(F)cc1F", "activation": "inconclusive: 33.3%"}
{"compound": "Cc1cc(C)c(NC(=O)Nc2ccc3c(c2)OCO3)c(C)c1", "activation": "inactive: -13.4%"}
{"compound": "Fc1ccc2[nH]c3c(N4CCN(Cc5ccc6c(c5)OCO6)CC4)ncnc3c2c1", "activation": "inconclusive: 52.7%"}
{"compound": "CCOC(=O)c1cc(-c2ccccc2)sc1NC(=O)COC", "activation": "inconclusive: 35.4%"}
{"compound": "O=C(NCCCCc1ccccc1)c1ccc(Br)cc1", "activation": "inconclusive: 60.5%"}
{"compound": "c1ccc(CCNc2nc(-c3ccccn3)nc3ccccc23)cc1", "activation": "inconclusive: 63.1%"}
{"compound": "CC(=O)c1cccc(NC(=S)N2CCc3ccccc32)c1", "activation": "inactive: 11.4%"}
{"compound": "COc1ccccc1CN1CCC(n2nccc2NC(=O)CCCc2ccccc2)CC1", "activation": "inactive: 6.31%"}
{"compound": "COc1ccc(OC)c(-c2csc(NC(=O)Cc3ccccc3OC)n2)c1", "activation": "inactive: 1.16%"}
{"compound": "COC(=O)c1cccc(NC(=O)CCCOc2cccc(C)c2)c1", "activation": "inconclusive: 79.2%"}
{"compound": "COc1ccc(C2c3c(oc4ccccc4c3=O)C(=O)N2c2ccc(C)cn2)cc1OC", "note": "(stereo not given)", "activation": "inconclusive: 32.5%"}
{"compound": "O=C(Nc1ccc(Cl)cc1)Nc1cccnc1", "activation": "inconclusive: 61.6%"}
{"compound": "O=C(N/N=C/c1cccs1)c1n[nH]c2c1CCCC2", "activation": "inconclusive: 52.9%"}
{"compound": "O=C(NCc1ccccc1)C1CCCN(c2nc3ccsc3c(=O)s2)C1", "note": "(stereo not given)", "activation": "inconclusive: 65.9%"}
{"compound": "COc1ccc(CCNC(=O)CN(c2ccccc2OC)S(=O)(=O)c2ccc(C)cc2)cc1", "activation": "inconclusive: 45.8%"}
{"compound": "O=C(Nc1cccnc1Cl)c1ccc2c(Cl)c3c(nc2c1)CCC3", "activation": "inconclusive: 56.3%"}
{"compound": "COc1ccc(OCC(O)Cn2c(=N)n(Cc3ccccc3)c3ccccc32)cc1", "note": "(stereo not given)", "activation": "inactive: 0.596%"}
{"compound": "O=C(Nc1ccc(Cl)cc1)N1CC=CCC1", "activation": "inconclusive: 71.9%"}
{"compound": "COC(=O)CC(NC(=O)c1ccc(C)cc1)c1ccccc1", "note": "(stereo not given)", "activation": "inconclusive: 52.4%"}
{"compound": "COc1ccc(C(=O)Oc2cccc(/C=N/NC(N)=S)c2)cc1", "activation": "inactive: -3.74%"}
{"compound": "CC1=CC(C)(C)N2C(=O)C3(C(C#N)=C(N)Oc4cc(O)ccc43)c3c(C)c(C)cc1c32", "note": "(stereo not given)", "activation": "inactive: -1.68%"}
{"compound": "CC(=O)Oc1cc2c(C(=O)NCc3ccncc3)c(C)oc2c2ccccc12", "activation": "inconclusive: 61%"}
{"compound": "O=C(Cc1ccccc1[N+](=O)[O-])NCCC1=CCCCC1", "activation": "inconclusive: 32.8%"}
{"compound": "COc1ccc(CCN2CC(C(=O)NCCCn3nc(C)cc3C)CCC2=O)cc1", "note": "(stereo not given)", "activation": "inactive: -2.59%"}
{"compound": "Cc1cccc(N2C(=O)C3CCC(c4ccccc4)CC3C2=O)c1", "note": "(stereo not given)", "activation": "inconclusive: 30.5%"}
{"compound": "O=C(CN(Cc1ccccc1)C(=O)CCl)c1cccc(Br)c1", "activation": "inconclusive: 41.2%"}
{"compound": "Cc1cc(C)n(Cc2ccccc2Cl)n1", "activation": "inactive: 0.209%"}
{"compound": "CC(=O)N1CCN(c2ccc(Nc3ncnc4c3oc3ccccc34)cc2)CC1", "activation": "inactive: 20.2%"}
{"compound": "C=C1CCN(c2ccc(C(=O)NCc3ccc(C)cc3)cc2[N+](=O)[O-])CC1", "activation": "inconclusive: 49.8%"}
{"compound": "CCN(CC)c1ccc(NC(=O)c2cnccn2)cc1S(=O)(=O)Nc1ccc(OC)cc1", "activation": "active: 85.2%"}
{"compound": "CCCCSc1nnc([C@@H](NC(=O)OC(C)(C)C)C(C)C)o1", "activation": "inconclusive: 57.8%"}
{"compound": "O=C(NC1CCCCCC1)c1ccc(Cl)c(S(=O)(=O)N2CCOCC2)c1", "activation": "inconclusive: 30.3%"}
